Results: patent US11230581B2, “Peptides and combination of peptides for use in immunotherapy against ovarian cancer and other cancers” (Immatics Biotechnologies GmbH, priority 2015, dated 2022)
For some of these results: Expression values are those of the mRNA of the gene that encodes the peptide; a gene is named only where it was looked up.

Assays:
[1] = system: additional tumor types; assay: LC-MS detection and over-presentation of the peptides on additional tumor types, cell lines and primary cultures; set-up: species or system human; settings: for Other relevant organs/ cancerous diseases: Table 4A: additional tumor types on which the peptide was found, over-presented on more than 5% of measured tumor samples, or presented on more than 5% with ratio of geometric means tumor vs normal tissues larger than 3
[2] = system: NSCLC tumor samples; assay: Absolute quantitation of TUMAP copies per cell (nanoLC-MS/MS, isolation efficiency, DNA-based cell count); set-up: species or system human; settings: absolute peptide quantitation in NSCLC tumor samples
[3] = system: ovarian cancer samples; assay: Relative LC-MS quantitation of HLA-presented peptides: presentation and over-presentation on ovarian cancer vs a panel of normal tissues (presentation score); set-up: species or system human; key: +++: very highly over-presented on tumors compared to a panel of normal tissues; ++: highly over-presented on tumors compared to a panel of normal tissues; +: over-presented on tumors compared to a panel of normal tissues; settings: over-presentation on tumors compared to a panel of normal tissues
[4] = system: source genes of the peptides (mRNA) in ovarian cancer vs normal tissues; assay: Expression profiling of genes encoding the peptides (RNAseq, expression score); set-up: species or system human; key: +++: very highly over-expressed in tumors compared to a panel of normal tissues; ++: highly over-expressed in tumors compared to a panel of normal tissues; +: over-expressed in tumors compared to a panel of normal tissues; settings: source gene over-expression in tumors compared to a panel of normal tissues
[5] = additional tumor types with over-presentation on more than 5% of the measured tumor samples, or presentation on more than 5% with ratio of geometric means tumor vs normal tissues larger than 3

Substance	Other relevant organs/ cancerous diseases [1]	Additional organs/cancerous diseases ([1]; amendment of Table 4: additional tumor types showing over-presentation (including specific presentation) on more than 5% of measured tumor samples, or presentation on more than 5% with ratio of geometric means tumor vs normal tissues larger than 3)	Copy Number Category (median number of copies per cell) [2]	Peptide Presentation (presentation score) [3]	Additional organs/cancerous diseases [1, 5]	Gene Expression (expression score) [4]
11 (KIFEMLEGV; listed as Homo sapiens) [compound 11]	NSCLC	Gallbladder Cancer and Bile Duct Cancer	++ (>= 100 = ++)	+++		
198 (KTINKVPTV; listed as Homo sapiens) [compound 198]	NSCLC, HCC		++ (>= 100 = ++)	+++	SCLC, Brain Cancer, CRC, Urinary Bladder Cancer, Uterine Cancer, HNSCC	
408 (VLDDSIYLV; listed as Homo sapiens) [compound 408]	Leukemia		++ (>= 100 = ++)		CLL, Uterine Cancer, NHL	
427 (ALLPLSPYL; listed as Homo sapiens) [compound 427]	NSCLC, SCLC, HCC, PC, BrCa, Uterine Cancer		+++ (>= 1,000 +++)	+++	Gallbladder Cancer and Bile Duct Cancer	
587 (VMNDRLYAI; listed as Homo sapiens) [compound 587]	Leukemia		++ (>= 100 = ++)		CLL, NHL	
595: peptide found in TAP1 (gene looked up) (VLLSIYPRV; listed as Homo sapiens) [compound 595]	NSCLC, SCLC, RCC, Leukemia, BrCa			+	CLL, Urinary Bladder Cancer, Gallbladder Cancer and Bile Duct Cancer	++
629: peptide found in NUP205 (gene looked up) (HLLNESPML; listed as Homo sapiens) [compound 629]	SCLC, Esophageal Cancer			++	RCC, PC, BRCA, Melanoma, Uterine Cancer, Gallbladder Cancer and Bile Duct Cancer, AML	+
631: peptide found in PRKDC (gene looked up) (FLDVFLPRV; listed as Homo sapiens) [compound 631]	PC, Leukemia, Melanoma, Esophageal Cancer			+	SCLC, CLL, NHL	+
632: peptide found in SMARCC1 (gene looked up) (YLIPDIDLKL; listed as Homo sapiens) [compound 632]	NSCLC, SCLC, CRC, HCC, PC, Leukemia, Melanoma, Urinary bladder Cancer, Uterine Cancer			++	CLL, AML, NHL, HNSCC	+
